Binding data for one molecule are collected here from patent publication US20090162869A1.

No constants are given. Whether binding was seen depends on the method and setting. Binding seen in cells or lysates may run through a third protein. A result given as binding can be weak or reduced; the word gives no strength.

The assay concerns the target Myc tag-attached Plexin-A1 (full-length gene, expressed in 293T cells). Description: co-immunoprecipitation from co-transfected 293T cells with antibody to membrane molecule (A), Western blot of tag.

B1: membrane molecule (A) of the present invention (PDC-TREM), mouse, full length (receptor)
chain: QNPELLRTQEGETVSVTCWYDSLYHSSEKIWCKQIDNLCYPFVSKSAEKPRFLIQQSSRFNFFTVTMTKLKMSDSGIYHCGIVANNTSVYLRNIHLVVSKGSSVVSTPDIIPATRLTKLPTLITTKHSPSDTTTTRSLPQPTTVVSSPDPRVIIINGTDADRGFVSSVTIPVVCGLLSKTLVFTVLFIVTQKSFGRQAMKAHNSNS
In the case of B1, the binding result is “binds”.
